This is one part of the list.
system: SARS-CoV-2 5_SL6 RNA; experiment: NMR binding call after quantification (hit when 2 of 3 NMR criteria are met) (binary (1 = binding, 0 = not binding)); higher = binding; conditions: RNA concentration 10 µM; fragment concentration 200 µM; 293 K

SMILES | NMR binding call
CCc1noc(C)c1C(=O)Nc1cc(C)on1 | 0
Cn1cc(C(N)=O)c(C(F)F)n1 | 0
Cc1cc(C(=O)Nc2ccc3[nH]ccc3c2)no1 | 0
CC(=O)NCc1cn[nH]c1 | 0
Oc1ccc(CN2CCCC2)c2cccnc12 | 0
Cc1ccccc1OCC(=O)Nc1ncccn1 | 0
O=C(Nc1ccc(-n2cnnn2)cc1)C1CCC1 | 0
CS(=O)(=O)Nc1ccc(CN)cc1.Cl | 0
CNC(=O)Nc1nc2ccc(OC)cc2s1 | 0
CC(=O)Nc1ccc2[nH]c(=O)[nH]c2c1 | 0
CNC(=O)c1nc2ccccc2c(=O)[nH]1 | 0
c1ccc(CNC2CCNC2)cc1 (stereo unspecified) | 0
CC1CCC(NC2CCC(O)CC2)CC1 (stereo unspecified) | 0
Cc1cccc(CN2CCOCC2)c1 | 0
Cl.Cl.O=C(c1ccncc1)N1CCNCC1 | 0
COCC(=O)Nc1nc(-c2ccccc2)cs1 | 0
Cc1ccc(N2CCN(C(N)=O)CC2)cc1 | 0
O=C(NCCc1ccc(O)cc1)c1ccccn1 | 0

Reformatted comma-delimited: two of the compounds above.
SMILES,NMR binding call
Cc1cc(C(=O)Nc2ccc3[nH]ccc3c2)no1,0
CC(=O)NCc1cn[nH]c1,0

The listing continues.

SMILES | NMR binding call
O=C1CN(C(=O)COc2ccccc2)CCN1 | 0
COc1ccc(CN2CCOCC2)cc1OC | 0
NCc1ccc(-c2cccs2)cc1 | 0
CC1CCCN(C(=O)CO)C1 (stereo unspecified) | 0
COC(=O)C1CCN(CC(N)=O)CC1 | 0
CN(C)Cc1nc(C2(N)CCCC2)no1 | 0
Cc1ccc(NC(=O)C2CCCO2)nc1 (stereo unspecified) | 0
CS(=O)(=O)c1nccn1Cc1cscn1 | 0
CC(=O)c1ccc(OC(F)F)cc1 | 0
Cc1ccc(OCC(=O)Nc2cc(C)on2)cc1 | 0
Cl.NC1CCN(S(=O)(=O)c2ccccc2)C1 (stereo unspecified) | 0
Cc1cc(CN(C)C(=O)NC2CC2)no1 | 0
CC(C)NCc1ccc(N(C)C)cc1 | 0
CC(=O)Nc1ccc(NC(=O)C2CC2(C)C)cc1 (stereo unspecified) | 0
CCOC(=O)c1sc(N(C)C(C)=O)nc1C | 0
Cc1cc(N2CCNCC2)nc(C)n1 | 0
CC(=O)Nc1cc(C)n[nH]1 | 0
OCc1ccc(-n2cnc3ccccc32)cc1 | 0

Source: the supplement of paper PMC8426693
